From PMC5344419, “The structure of FKBP38 in complex with the MEEVD tetratricopeptide binding-motif of Hsp90” (PLoS ONE, 2017)

System: FKBP^92-380
Assay: X-ray crystallography, peptides bound to the TPR domain of FKBP^92-380
Settings: crystal structure at 2.18 Å (PDB 5MGX); peptide from proteolytic cleavage of yHsp90^546-709 during crystallization; four molecules of FKBP^92-380 in the unit cell

Row | Substance | peptide bound to the TPR domain in the crystal
1 | ATEMEEVD | bound peptides found
2 | EMEE | bound peptides found
3 | EMEEVD | bound peptides found
